Values from PubChem BioAssay AID1508588 (Peter MacCallum Cancer Centre, 2020).
Assay: 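Which gene losses make BRAF-mutant melanoma cells more responsive to vemurafenib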 (primary screen). Cell system: human WM266.4 melanoma cells (BRAF V600 mutant). Knock-down reagent: siRNA pool against human genes, 40 nM. Timing: 96 h from transfection to read-out. Treatment: vemurafenib 300 nM (about IC25), added 48 h after transfection, for 48 h; comparison arm got DMSO vehicle only. Read-out: 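Ratios to non-targeting siRNA for cell gain, counted as DAPI nuclei after minus before drug and averaged over two replicates, and for absorbance-read medium lactate per cell; both binned into fold-change classes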. Scale: cell gain with vemurafenib: higher = more cell gain than with non-targeting siRNA; lactate per cell with vemurafenib: higher = more lactate made per cell. Call rule: 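a knock-down counts as enhancing when its fold-change classes with vehicle and with vemurafenib, taken together, show a stronger drug effect on cell gain or lactate per cell; exact class pairs not stated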. Meaning of the calls: active = enhances vemurafenib effect; inactive = no enhancement seen.
In all, the deposit lists about 18,000 reagents; this is a random part of them. In the full data, 790 (4.4%) got an active call. 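Calls rest on a combination of fold-change classes in drug and vehicle arms, not all shown here.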

no.	gene	cell gain with vemurafenib	lactate per cell with vemurafenib	Call
1	PRODH2 (GeneID 58510)	1.36	0.8	inactive
2	GLIS3 (GeneID 169792)	0.23	0.22	inactive
3	DERL2 (GeneID 51009)	0.06	2.22	inactive
4	DENND2D (GeneID 79961)	0.35	1.56	inactive
5	AKR7A2 (GeneID 8574)	0.74	0.74	inactive
6	PHF20L1 (GeneID 51105)	0.92	0.85	inactive
7	HOXA2 (GeneID 3199)	0.54	0.57	inactive
8	MAP3K2 (GeneID 10746)	0.65	1.34	inactive
9	GNG13 (GeneID 51764)	0.37	0.76	inactive
10	MAT2B (GeneID 27430)	0.62	0.9	inactive
11	PM20D2 (GeneID 135293)	0.51	0.3	active
12	EDEM2 (GeneID 55741)	0.53	0.98	inactive
13	OR52W1 (GeneID 120787)	0.15	0.98	inactive
14	SYT4 (GeneID 6860)	0.31	0.92	inactive
15	FBXL17 (GeneID 64839)	0.79	0.52	inactive
16	CPNE6 (GeneID 9362)	0.06	0.84	inactive
17	OR4K14 (GeneID 122740)	0.25	0.85	inactive
18	CD5 (GeneID 921)	0.45	0.73	inactive
19	APOBEC3D (GeneID 140564)	0.32	0.56	inactive
20	NEK9 (GeneID 91754)	0.54	1.16	inactive
21	MEAF6 (GeneID 64769)	0.93	0.56	inactive
22	RELT (GeneID 84957)	0.33	0.26	inactive
23	EIF3I (GeneID 8668)	0.11	1.38	inactive
24	VPS13B (GeneID 157680)	0.49	1.34	inactive
25	ZNF81 (GeneID 347344)	0.93	0.43	inactive
26	TUT7 (GeneID 79670)	0.71	0.5	inactive
27	KCNE4 (GeneID 23704)	0.62	0.14	inactive
28	CMTM4 (GeneID 146223)	0.39	0.73	inactive
29	RMDN1 (GeneID 51115)	0.57	0.14	active
30	BRF1 (GeneID 2972)	0.55	1.14	inactive
31	DENND2A (GeneID 27147)	0.71	1.06	inactive
32	BAZ1A (GeneID 11177)	0.36	2.03	inactive
33	USP54 (GeneID 159195)	1.08	0.77	inactive
34	NHLH1 (GeneID 4807)	0.16	0.24	inactive
35	NPFF (GeneID 8620)	0.42	0.6	active
36	OFD1 (GeneID 8481)	0.54	0.6	inactive
37	CTDSP2 (GeneID 10106)	0.76	0.86	inactive
38	AGO2 (GeneID 27161)	0.88	0.93	inactive
39	PLSCR5 (GeneID 389158)	1.15	0.63	inactive
40	ATP6V1C1 (GeneID 528)	0.26	0.2	inactive
41	STEAP3 (GeneID 55240)	1.1	0.7	inactive
42	RIMS4 (GeneID 140730)	0.27	1.93	inactive
43	CDY1B (GeneID 253175)	0.38	1.96	inactive
44	SMAD6 (GeneID 4091)	0.17	2.29	inactive
45	WDCP (GeneID 80304)	0.79	0.22	inactive
46	ATF2 (GeneID 1386)	0.45	0.52	inactive
47	CUEDC2 (GeneID 79004)	0.53	0.86	inactive
48	CYTH2 (GeneID 9266)	0.24	1.99	inactive
49	ZRANB2 (GeneID 9406)	0.65	1.43	inactive
50	KMT2E (GeneID 55904)	1.17	0.92	inactive
51	RCOR2 (GeneID 283248)	1.25	0.66	inactive
52	TRIML1 (GeneID 339976)	0.94	0.7	inactive

Individual results from the entries so far.
Value for FBXL17 (GeneID 64839) under “lactate per cell with vemurafenib”: 0.52
Entry of ATP6V1C1 (GeneID 528) in “lactate per cell with vemurafenib”: 0.2
Entry of MEAF6 (GeneID 64769) under “cell gain with vemurafenib”: 0.93
Value for CPNE6 (GeneID 9362) in “cell gain with vemurafenib”: 0.06
Under “cell gain with vemurafenib”, CUEDC2 (GeneID 79004) shows 0.53
CTDSP2 (GeneID 10106), Call = inactive

The listing continues:
no.	gene	cell gain with vemurafenib	lactate per cell with vemurafenib	Call
53	TMTC1 (GeneID 83857)	0.58	0.99	inactive
54	RAD17 (GeneID 5884)	0.61	1.12	inactive
55	SLC12A6 (GeneID 9990)	0.94	0.76	inactive
56	RBMS3 (GeneID 27303)	0.77	0.43	inactive
57	FKTN (GeneID 2218)	0.58	0.7	inactive
58	ZNF213 (GeneID 7760)	0.98	0.39	inactive
59	TSEN54 (GeneID 283989)	0.47	1.17	inactive
60	OSTCP1 (GeneID 202459)	0.66	0.84	inactive
61	SLC35A2 (GeneID 7355)	0.33	2.04	inactive
62	SAMHD1 (GeneID 25939)	0.7	0.69	inactive
63	GLI1 (GeneID 2735)	0.14	1.05	inactive
64	SINHCAF (GeneID 58516)	0.55	0.88	inactive
65	RPUSD3 (GeneID 285367)	0.73	0.68	inactive
66	OR4K17 (GeneID 390436)	0.19	1.74	inactive
67	KCNQ2 (GeneID 3785)	0.45	1.23	inactive
68	PBK (GeneID 55872)	0.93	0.82	inactive
69	SDF2 (GeneID 6388)	0.71	0.6	inactive
70	AIM2 (GeneID 9447)	0.87	0.7	inactive
71	ADGRV1 (GeneID 84059)	0.93	0.57	inactive
72	DNAH8 (GeneID 1769)	0.37	1.04	inactive
73	COX19 (GeneID 90639)	1.06	1.4	inactive
74	MOB3A (GeneID 126308)	-0.1	2.1	inactive
75	TUSC1 (GeneID 286319)	1.24	1.07	inactive
76	ACSM6 (GeneID 142827)	0.98	1.39	inactive
77	CAPG (GeneID 822)	0.32	0.6	inactive
78	KRTAP4-4 (GeneID 84616)	0.6	0.68	inactive
79	KPTN (GeneID 11133)	0.29	0.11	active
80	CD2 (GeneID 914)	0.85	1.41	inactive
81	HACL2 (GeneID 10994)	0.22	0.97	inactive
82	DLGAP1-AS1 (GeneID 649446)	1.14	0.42	inactive
83	UBC (GeneID 7316)	-0.04	2.12	inactive
84	HMHB1 (GeneID 57824)	0.35	0.78	inactive
85	AFMID (GeneID 125061)	0.31	0.74	inactive
86	EMB (GeneID 133418)	0.41	1.27	inactive
87	SELENOM (GeneID 140606)	0.96	0.89	inactive
88	H2AC15 (GeneID 8330)	0.62	0.99	inactive
89	CILP2 (GeneID 148113)	0.08	2.99	inactive
90	TENT4A (GeneID 11044)	0.52	0.55	inactive
91	TSPYL4 (GeneID 23270)	0.85	0.88	inactive
92	TCEAL4 (GeneID 79921)	1.04	0.4	inactive
93	BRI3 (GeneID 25798)	0.85	1.44	inactive
94	IRF8 (GeneID 3394)	0.61	0.83	inactive
95	CD27 (GeneID 939)	0.46	1.28	inactive
96	ZNF45 (GeneID 7596)	0.56	1.07	inactive
97	PPM1H (GeneID 57460)	1.06	1.12	inactive
98	LCE4A (GeneID 199834)	0.39	0.43	active
99	CNR2 (GeneID 1269)	0.44	1.23	inactive
100	CNTNAP1 (GeneID 8506)	0.36	1.08	inactive
101	GLYCTK (GeneID 132158)	0.73	0.7	inactive
102	PIGK (GeneID 10026)	0.42	0.27	inactive
103	BAZ2A (GeneID 11176)	0.7	0.93	inactive
104	SH2D2A (GeneID 9047)	0.75	0.8	inactive
105	BATF (GeneID 10538)	0.23	2.25	inactive
106	SLC39A11 (GeneID 201266)	0.12	0.56	inactive
107	MICU2 (GeneID 221154)	0.59	0.61	inactive
